According to publication PMC2363544:
Results are given in words; binding and its absence hold for the method and conditions named. Some binding calls cover weakened binding; strength is not graded here. Values belong to the molecule of their own block, whether it stands above or below them.

Chains of the proteins cited; added tags and fusions are not shown. Lines headed by an entry give the natural chain unless they say otherwise; changes in a name come on top.
UniProt Q01094: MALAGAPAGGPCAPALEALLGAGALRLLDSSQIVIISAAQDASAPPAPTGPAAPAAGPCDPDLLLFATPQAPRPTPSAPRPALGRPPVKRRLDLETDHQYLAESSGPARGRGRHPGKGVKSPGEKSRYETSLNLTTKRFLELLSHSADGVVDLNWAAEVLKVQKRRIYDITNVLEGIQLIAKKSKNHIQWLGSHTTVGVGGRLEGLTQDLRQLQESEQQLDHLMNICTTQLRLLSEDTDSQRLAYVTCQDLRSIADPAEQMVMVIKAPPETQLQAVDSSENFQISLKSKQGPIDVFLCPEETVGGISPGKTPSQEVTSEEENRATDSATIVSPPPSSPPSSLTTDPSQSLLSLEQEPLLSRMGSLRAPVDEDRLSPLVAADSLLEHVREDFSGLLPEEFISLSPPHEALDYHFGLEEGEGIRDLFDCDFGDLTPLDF
UniProt Q08999: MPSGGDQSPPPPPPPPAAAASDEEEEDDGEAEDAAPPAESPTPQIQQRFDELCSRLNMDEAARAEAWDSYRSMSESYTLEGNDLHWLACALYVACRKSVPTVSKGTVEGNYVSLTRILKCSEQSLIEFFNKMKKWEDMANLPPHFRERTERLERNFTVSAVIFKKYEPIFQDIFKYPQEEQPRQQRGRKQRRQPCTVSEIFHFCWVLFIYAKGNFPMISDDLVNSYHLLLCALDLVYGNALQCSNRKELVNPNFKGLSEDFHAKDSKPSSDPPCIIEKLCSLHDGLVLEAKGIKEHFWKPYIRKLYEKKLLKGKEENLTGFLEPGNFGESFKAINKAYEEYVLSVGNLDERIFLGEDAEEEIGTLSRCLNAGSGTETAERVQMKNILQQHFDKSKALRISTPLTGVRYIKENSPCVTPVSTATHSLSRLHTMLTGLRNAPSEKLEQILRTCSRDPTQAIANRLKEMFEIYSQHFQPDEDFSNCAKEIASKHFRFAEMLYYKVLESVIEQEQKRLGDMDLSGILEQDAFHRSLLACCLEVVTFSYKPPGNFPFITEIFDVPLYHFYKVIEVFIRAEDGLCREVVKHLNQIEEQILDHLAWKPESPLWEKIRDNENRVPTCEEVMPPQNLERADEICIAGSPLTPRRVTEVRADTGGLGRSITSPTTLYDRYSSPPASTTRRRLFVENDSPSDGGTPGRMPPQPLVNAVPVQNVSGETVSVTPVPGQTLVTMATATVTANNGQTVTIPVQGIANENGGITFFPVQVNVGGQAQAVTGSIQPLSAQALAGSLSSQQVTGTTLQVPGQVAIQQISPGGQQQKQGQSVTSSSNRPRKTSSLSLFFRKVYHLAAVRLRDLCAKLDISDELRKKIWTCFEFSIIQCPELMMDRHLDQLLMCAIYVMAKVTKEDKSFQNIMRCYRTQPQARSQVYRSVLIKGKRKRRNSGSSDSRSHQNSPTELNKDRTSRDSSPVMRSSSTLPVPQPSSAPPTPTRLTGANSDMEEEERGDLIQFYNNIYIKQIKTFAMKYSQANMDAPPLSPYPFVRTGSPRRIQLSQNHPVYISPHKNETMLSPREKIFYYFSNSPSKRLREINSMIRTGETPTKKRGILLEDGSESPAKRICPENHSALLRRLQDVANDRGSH

Target: E2F-1 transcription factor (UniProt Q01094)
Experiment: native gel or EMSA; electrophoretic mobility shift assay with antibody supershift; HT1080 clones stably overexpressing E2F-1

binding: binds
Molecule: pocket protein p130 (from UniProt Q08999 1-1139)

binding: binds
B1: pocket protein p107 (protein, UniProt P28749 1-1068)
chain: MFEDKPHAEGAAVVAAAGEALQALCQELNLDEGSAAEALDDFTAIRGNYSLEGEVTHWLACSLYVACRKSIIPTVGKGIMEGNCVSLTRILRSAKLSLIQFFSKMKKWMDMSNLPQEFRERIERLERNFEVSTVIFKKYEPIFLDIFQNPYEEPPKLPRSRKQRRIPCSVKDLFNFCWTLFVYTKGNFRMIGDDLVNSYHLLLCCLDLIFANAIMCPNRQDLLNPSFKGLPSDFHTADFTASEEPPCIIAVLCELHDGLLVEAKGIKEHYFKPYISKLFDRKILKGECLLDLSSFTDNSKAVNKEYEEYVLTVGDFDERIFLGADAEEEIGTPRKFTRDTPLGKLTAQANVEYNLQQHFEKKRSFAPSTPLTGRRYLREKEAVITPVASATQSVSRLQSIVAGLKNAPSDQLINIFESCVRNPVENIMKILKGIGETFCQHYTQSTDEQPGSHIDFAVNRLKLAEILYYKILETVMVQETRRLHGMDMSVLLEQDIFHRSLMACCLEIVLFAYSSPRTFPWIIEVLNLQPFYFYKVIEVVIRSEEGLSRDMVKHLNSIEEQILESLAWSHDSALWEALQVSANKVPTCEEVIFPNNFETGNGGNVQGHLPLMPMSPLMHPRVKEVRTDSGSLRRDMQPLSPISVHERYSSPTAGSAKRRLFGEDPPKEMLMDKIITEGTKLKIAPSSSITAENVSILPGQTLLTMATAPVTGTTGHKVTIPLHGVANDAGEITLIPLSMNTNQESKVKSPVSLTAHSLIGASPKQTNLTKAQEVHSTGINRPKRTGSLALFYRKVYHLASVRLRDLCLKLDVSNELRRKIWTCFEFTLVHCPDLMKDRHLDQLLLCAFYIMAKVTKEERTFQEIMKSYRNQPQANSHVYRSVLLKSIPREVVAYNKNINDDFEMIDCDLEDATKTPDCSSGPVKEERGDLIKFYNTIYVGRVKSFALKYDLANQDHMMDAPPLSPFPHIKQQPGSPRRISQQHSIYISPHKNGSGLTPRSALLYKFNGSPSKSLKDINNMIRQGEQRTKKRVIAIDSDAESPAKRVCQENDDVLLKRLQDVVSERANH
